Assay results taken from article PMC8513302.
No constants are given. Whether binding was seen depends on the method and setting. In cells and extracts the contact can be indirect. Some binding calls cover weakened binding; strength is not graded here.

Chains of the proteins cited; added tags and fusions are not shown.
UniProt O15047: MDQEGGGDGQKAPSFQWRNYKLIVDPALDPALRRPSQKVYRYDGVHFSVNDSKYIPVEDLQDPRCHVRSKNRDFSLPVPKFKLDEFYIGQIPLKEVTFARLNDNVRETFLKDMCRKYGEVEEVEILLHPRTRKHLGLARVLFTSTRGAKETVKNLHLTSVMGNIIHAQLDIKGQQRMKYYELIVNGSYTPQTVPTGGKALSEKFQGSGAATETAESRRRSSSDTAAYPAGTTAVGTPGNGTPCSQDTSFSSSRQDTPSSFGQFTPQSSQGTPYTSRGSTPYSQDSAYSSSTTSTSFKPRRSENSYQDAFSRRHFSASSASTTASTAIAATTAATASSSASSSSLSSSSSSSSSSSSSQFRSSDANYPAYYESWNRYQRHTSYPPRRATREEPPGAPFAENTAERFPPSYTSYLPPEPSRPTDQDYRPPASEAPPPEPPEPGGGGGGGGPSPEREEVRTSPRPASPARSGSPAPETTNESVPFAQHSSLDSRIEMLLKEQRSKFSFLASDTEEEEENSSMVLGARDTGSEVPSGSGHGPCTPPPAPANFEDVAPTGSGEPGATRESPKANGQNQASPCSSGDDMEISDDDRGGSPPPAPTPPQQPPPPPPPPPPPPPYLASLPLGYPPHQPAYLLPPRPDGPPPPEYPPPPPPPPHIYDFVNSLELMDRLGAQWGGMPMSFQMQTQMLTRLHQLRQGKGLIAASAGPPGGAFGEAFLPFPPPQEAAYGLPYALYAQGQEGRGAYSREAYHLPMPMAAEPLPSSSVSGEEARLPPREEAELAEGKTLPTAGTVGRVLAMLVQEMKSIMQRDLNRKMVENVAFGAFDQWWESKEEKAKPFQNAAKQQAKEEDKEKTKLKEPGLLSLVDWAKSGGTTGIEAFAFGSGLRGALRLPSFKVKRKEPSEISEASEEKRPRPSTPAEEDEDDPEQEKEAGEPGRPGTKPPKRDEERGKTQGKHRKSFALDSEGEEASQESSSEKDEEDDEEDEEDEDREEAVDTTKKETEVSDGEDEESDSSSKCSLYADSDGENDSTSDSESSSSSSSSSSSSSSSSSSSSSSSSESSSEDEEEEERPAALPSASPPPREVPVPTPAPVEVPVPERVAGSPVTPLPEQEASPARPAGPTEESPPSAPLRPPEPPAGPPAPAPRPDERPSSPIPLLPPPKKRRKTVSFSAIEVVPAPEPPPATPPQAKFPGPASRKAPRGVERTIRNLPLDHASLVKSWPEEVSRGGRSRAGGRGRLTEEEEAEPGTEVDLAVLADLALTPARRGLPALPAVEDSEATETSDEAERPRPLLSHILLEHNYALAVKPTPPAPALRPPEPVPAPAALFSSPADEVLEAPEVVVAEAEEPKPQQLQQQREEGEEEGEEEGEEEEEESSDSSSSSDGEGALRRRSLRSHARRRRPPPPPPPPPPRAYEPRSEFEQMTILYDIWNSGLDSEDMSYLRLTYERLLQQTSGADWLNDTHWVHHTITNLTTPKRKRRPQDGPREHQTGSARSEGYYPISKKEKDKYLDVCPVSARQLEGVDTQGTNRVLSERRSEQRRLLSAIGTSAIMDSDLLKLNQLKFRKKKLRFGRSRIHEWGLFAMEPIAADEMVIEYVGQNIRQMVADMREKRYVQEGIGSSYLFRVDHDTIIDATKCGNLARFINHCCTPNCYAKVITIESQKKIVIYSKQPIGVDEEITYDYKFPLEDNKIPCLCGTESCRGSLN
UniProt P35222: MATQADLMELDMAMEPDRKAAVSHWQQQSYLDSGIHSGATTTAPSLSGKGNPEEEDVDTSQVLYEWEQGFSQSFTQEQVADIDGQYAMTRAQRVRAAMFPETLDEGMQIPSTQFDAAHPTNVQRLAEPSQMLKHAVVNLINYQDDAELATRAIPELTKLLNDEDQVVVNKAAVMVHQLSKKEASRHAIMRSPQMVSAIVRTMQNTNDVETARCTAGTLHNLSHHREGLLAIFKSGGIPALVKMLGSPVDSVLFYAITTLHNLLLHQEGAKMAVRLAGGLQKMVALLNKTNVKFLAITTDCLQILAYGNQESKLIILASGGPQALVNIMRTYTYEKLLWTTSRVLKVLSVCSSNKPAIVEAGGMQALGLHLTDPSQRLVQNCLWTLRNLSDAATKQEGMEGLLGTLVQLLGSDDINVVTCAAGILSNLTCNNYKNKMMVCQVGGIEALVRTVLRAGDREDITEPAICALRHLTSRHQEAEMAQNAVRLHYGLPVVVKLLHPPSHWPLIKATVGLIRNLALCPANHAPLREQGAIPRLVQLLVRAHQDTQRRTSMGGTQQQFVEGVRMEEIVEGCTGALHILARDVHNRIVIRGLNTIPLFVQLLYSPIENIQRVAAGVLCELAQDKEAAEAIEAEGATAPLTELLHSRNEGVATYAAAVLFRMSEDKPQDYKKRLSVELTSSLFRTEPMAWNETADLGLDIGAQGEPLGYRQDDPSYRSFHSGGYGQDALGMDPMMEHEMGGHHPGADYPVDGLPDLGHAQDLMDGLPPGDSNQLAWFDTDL

What was measured:
[1] = target: SETD1A (human (endogenous in PC9 and BEAS-2B)) (UniProt O15047); assay: co-IP; endogenous proteins in lysates of PC9 or BEAS-2B cells; IP with anti-SETD1A or anti-β-catenin antibody, Protein A/G PLUS-Agarose, western blot; for the destruction complex: PC9 cells with or without SETD1A knock-down, Wnt3a for 12 h, IP with β-catenin antibody
Flag-tagged SETD1A = Flag-tagged SETD1A (UniProt O15047); assay: co-IP; two-step co-IP; HEK293T cotransfected with Flag-tagged SETD1A and HA-tagged β-catenin; first IP anti-Flag M2 beads, elution with 3 x Flag peptide (250 μg/ml), second IP with anti-HA or control IgG; blots with anti-Flag, anti-HA and anti-PKAα cat
[2] = target: β-catenin (human (endogenous in PC9 and BEAS-2B)) (UniProt P35222); assay: co-IP; endogenous proteins in lysates of PC9 or BEAS-2B cells; IP with anti-SETD1A or anti-β-catenin antibody, Protein A/G PLUS-Agarose, western blot; for the destruction complex: PC9 cells with or without SETD1A knock-down, Wnt3a for 12 h, IP with β-catenin antibody

## β-catenin (from UniProt P35222 1-781)
[1]
  binding: binds

## HA-tagged full length β-catenin (from UniProt P35222 1-781)
Flag-tagged SETD1A
  binding: binds

## SETD1A (from UniProt O15047 1-1707)
[2]
  binding: binds
